Paper PMC4560694

Target: T1, GAL4 DNA-binding domain:Pi04089 fusion (pDEST32-Pi04089) (Phytophthora infestans) (UniProt D0N0I9)
T1 sequence: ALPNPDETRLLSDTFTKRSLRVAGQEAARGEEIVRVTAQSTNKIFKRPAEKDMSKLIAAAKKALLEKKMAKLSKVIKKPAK
Experiment: two-hybrid

In the case of “GAL4 activation domain fusion of StKRBP1 (prey) (from UniProt M1CGA4)”, the binding is reported as “binds”.

No constants are given. Whether binding was seen depends on the method and setting. Binding can be weak; no strength is given. Sequences can lack the tags named with a protein.
